Source: paper PMC5355267
Results are given in words; binding and its absence hold for the method and conditions named. Binding seen in cells or lysates may run through a third protein. Some entries that bind do so weakly or less than the wild type.

Chains of the proteins cited; added tags and fusions are not shown. Residues count along the entry.
UniProt P06756, residues 31-1048: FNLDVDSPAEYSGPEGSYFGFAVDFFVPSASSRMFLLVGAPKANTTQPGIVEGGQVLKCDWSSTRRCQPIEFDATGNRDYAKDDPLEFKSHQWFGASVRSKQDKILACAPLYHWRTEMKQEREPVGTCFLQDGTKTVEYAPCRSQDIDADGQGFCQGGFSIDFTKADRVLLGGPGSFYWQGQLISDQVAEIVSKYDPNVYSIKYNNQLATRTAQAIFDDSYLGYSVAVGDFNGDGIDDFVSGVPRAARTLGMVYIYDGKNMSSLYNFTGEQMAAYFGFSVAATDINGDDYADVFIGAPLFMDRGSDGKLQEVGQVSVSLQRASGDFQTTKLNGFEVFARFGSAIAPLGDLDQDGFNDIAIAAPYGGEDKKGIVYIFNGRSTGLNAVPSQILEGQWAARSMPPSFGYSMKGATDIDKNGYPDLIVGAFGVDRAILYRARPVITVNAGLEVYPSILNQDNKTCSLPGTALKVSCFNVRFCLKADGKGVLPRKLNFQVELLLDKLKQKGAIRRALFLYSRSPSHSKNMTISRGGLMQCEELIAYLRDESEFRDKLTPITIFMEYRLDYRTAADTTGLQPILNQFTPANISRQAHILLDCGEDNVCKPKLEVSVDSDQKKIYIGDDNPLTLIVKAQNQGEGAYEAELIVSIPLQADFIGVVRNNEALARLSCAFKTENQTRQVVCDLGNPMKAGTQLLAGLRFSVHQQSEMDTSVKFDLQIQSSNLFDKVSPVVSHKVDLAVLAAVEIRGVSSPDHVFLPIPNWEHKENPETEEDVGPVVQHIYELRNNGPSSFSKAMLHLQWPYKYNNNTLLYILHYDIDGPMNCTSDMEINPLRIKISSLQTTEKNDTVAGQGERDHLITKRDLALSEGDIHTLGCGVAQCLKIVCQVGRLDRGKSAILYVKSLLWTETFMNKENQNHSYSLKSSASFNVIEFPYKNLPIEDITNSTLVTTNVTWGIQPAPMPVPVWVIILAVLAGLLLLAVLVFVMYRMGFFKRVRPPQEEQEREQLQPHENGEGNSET
UniProt Q03405, residues 23-305: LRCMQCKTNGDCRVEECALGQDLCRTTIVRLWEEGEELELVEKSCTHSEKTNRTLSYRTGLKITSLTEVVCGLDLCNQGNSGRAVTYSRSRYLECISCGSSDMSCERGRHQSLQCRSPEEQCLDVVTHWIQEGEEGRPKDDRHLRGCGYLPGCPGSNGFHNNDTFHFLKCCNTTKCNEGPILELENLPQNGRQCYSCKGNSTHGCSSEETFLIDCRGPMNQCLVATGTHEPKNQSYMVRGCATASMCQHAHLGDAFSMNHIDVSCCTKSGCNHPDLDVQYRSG

Molecular target: integrin αV (human (endogenous in A549)) (UniProt P06756)
Assay: co-IP; A549 cells incubated with GST or DP2 at 3 ug/mL for 24 h, lysed; clarified lysates immunoprecipitated with antibody to integrin alphaV, blotted for uPAR and integrin alphaV

urokinase-type plasminogen activator receptor (uPAR) (from UniProt Q03405 23-305)
binding: binds
